Percent effect of library compounds

The values are deposited in ChEMBL (CHEMBL3988442, “University of Dundee, Small-Polar-MMV Screening Library” (2021)).

Each number is a percent effect as filed.
The record does not define 0% and 100%; most values in the screen are far below 50% and negative numbers occur (in some assays of this library far below -100).
Compounds were drawn at random from those tested, without regard to their results.
Two or more numbers in one place are separate tests of the same structure; such repeats can differ widely.
A dash means the value is not listed here; it may have been measured.

T. brucei: 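Whole-parasite assay of Trypanosoma brucei over 72 hours; the read-out is not stated. Tested at 30 µM. Direction is inferred from retests: higher values go with stronger inhibition. Values scatter widely below zero; nearly all retest evidence comes from the higher of the two concentrations used. Size under these conditions: about 64,000 compounds, about 940 of them at 50% or above in at least one test.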
Leishmania in macrophages: 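Cell assay of Leishmania donovani living inside macrophages; the read-out is not stated. Tested at 30 µM. The record gives no direction; compounds that gave an IC50 in retests scored well above the rest, so higher reads as stronger inhibition. About 69,000 compounds were tested under these conditions; 1.5% (about 1,000) showed 50% or more at least once.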
Toxoplasma: 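Assay of Toxoplasma gondii numbers, read through their beta-galactosidase reporter with a colour substrate. Concentration: 10 µM. Higher reads as fewer parasites (inferred from which compounds were picked for retests). Of about 67,000 compounds tested this way, about 260 (0.38%) reached 50% or more in at least one test.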

SMILES,T. brucei,Leishmania in macrophages,Toxoplasma
CC(C)=CCN1CCC(c2nccn2Cc2cscn2)CC1,33.68%,39.66%,-3.125%
CCn1cc(CNCc2ccc(C(=O)OC)cc2)c(C)n1,-17.37%,-10.67%,-7.458%
CC(C)(C)c1cn2c(n1)C(CNCc1cnn3ccccc13)CCC2 (stereo not drawn),100%,16.63%,84.08%
Cc1ccc(N(Cc2ccco2)C(=O)CC2=NN(C)C(=O)C2)cc1,-11.27%,6.943%,-9.636%
CCN(C(=O)CCc1ccc2[nH]ccc2c1)C1CC(=O)NC1=O (stereo not drawn),-7.537%,18.87%,-30.14%
CCCNc1nnc(S(=O)(=O)CCOCC)s1,-15.41%,14.7%,5.116%
Cc1cccc(N2CCN(CCNC(=O)c3ccnn3C)CC2)c1,-7.951%,32.04%,-12.49%
NC(=O)N1CCC(C(=O)NC2CCc3nccn3C2)CC1 (stereo not drawn),-24.79%,-91.03%,8.178%
COc1cc(N2CC3(CCN(c4ncccn4)C3)C2)ncn1,-68.49%,30.48% and 18.49%,2.596%
Cc1ccsc1C(=O)N1CCn2cnc(COCC3CC3)c2C1,-32.82%,18.12% and 12.56%,-1.242%
CCNC(=O)c1sccc1N(C)S(=O)(=O)c1ccc(Cl)cc1,-62.8%,2.943%,-1.638%
CCc1[nH]c2c(CNC(=O)C3CCN(C)C3)cc(C)cc2c1C (stereo not drawn),-,27.74%,-50.53%
CC(C)NC1CCc2c(ccc(=O)n2CCN(C)C)C1.O=C(O)C(F)(F)F.O=C(O)C(F)(F)F (stereo not drawn),-,-0.7137%,2.916%
COCCC(=O)N1CCn2c(COCC3CC3)cnc2C1C (stereo not drawn),-26.21%,-10.98%,-5.959%
Cc1nn(C)c(C)c1CN(Cc1cccn1-c1cccnc1)C(C)C,-33.25%,45.46%,17.45%
Cc1cc(C[C@@H]2COC[C@@H]2NC(=O)CCN2Cc3ccccc3C2)on1,-48.71%,27.57%,4.669%
CC(C)NC(=O)C1CCc2nnc(CNC(=O)C3CC3)n21 (stereo not drawn),-,-4.651%,-6.994%
CCCC(NC(=O)c1ccccn1)c1nnc2ccccn12 (stereo not drawn),-59.98%,6.819%,-6.321%
CNc1ncccc1C(=O)N1CCC2(CCN(C)C2)CC1,-25.65%,23.61%,1.726%
[H][C@@]12CCN(Cc3ccco3)C[C@@]1([H])O[C@@H](c1ccnc(C(C)C)n1)C2,20.47%,-10.98%,-7.008%
CC1CN(Cc2ccccc2)CCCN1CCS(C)(=O)=O (stereo not drawn),26.2%,-3.468%,2.504%
CS(=O)(=O)N1CCN(C(=O)CN2CCCc3c(F)cc(F)cc32)CC1,-14.49%,5.554%,-1.959%
Cc1noc(C)c1C(=O)NCc1ccnc(OCC(F)(F)F)c1,5.462%,22.52%,-17.22%
[H][C@]12CC[C@]([H])(CN(Cc3ccccn3)C1)N(CC(=O)NCc1cccs1)C2,-12.94%,45.47%,-
Cc1cnn(CC(C)NCc2ccncc2)c1 (stereo not drawn),9.994%,7.057%,-29.07%
CN(Cc1ccc2c(c1)OCCO2)C(=O)NCCc1cnn(C)c1,-44.91%,-29.34%,-0.8616%
CCc1ccc2nc(C)cc(C(=O)NCc3csc(N(C)C)n3)c2c1,-39.1%,2.641%,0.8646%
Cc1nc(-c2ccncc2)nc(N(C)CCc2ccncc2)c1C,-14.01%,5.33%,-0.6772%
O=C(O)C(F)(F)F.[H][C@@]12CCN(C(=O)c3sccc3C)C[C@]1([H])[C@@H](CN(C)C)OC2,-10.27%,15.13%,2.66%
Cc1cc(C(=O)N2CCn3cc(CN4CCN(C)CC4)nc3C2)no1,-750%,13.02%,7.923%
Cc1cc(C)n(CC2CCCN2C(=O)c2c(C)noc2C)n1 (stereo not drawn),-44.03%,7.272%,41.91%
O=C(N1CCOCC1)N1CCCC(c2ncncc2-c2ccncc2)C1 (stereo not drawn),12.01%,24.7%,-3.821%
CCc1cc(N(C)Cc2ncc[nH]2)nc(N2CCOCC2)n1,-104.1%,-6.093%,6.598%
COc1ccccc1CNC(=O)Cn1ncc2c1c(C)nn2C,68.66%,13.53%,-5.38%
C=C(C)Cn1cc(C(N)=O)nc1C1CC1,-68.3%,23.31%,1.325%
Cl.c1cc(NCc2ccncc2)nc(C2CCCNC2)c1 (stereo not drawn),-1.5%,20.7%,15.42%
[H][C@]12CC[C@]([H])(CN(C(=O)CSCCC)C1)N(Cc1ccccn1)C2=O,-56.39%,-7.152%,-27.07%
Cc1ccc(CC(=O)N2CCN(CC(O)c3ccccc3)CC2)cn1 (stereo not drawn),-9.996%,34.5%,-5.928%
CC(C)n1nc(Cn2cccn2)c2c1CN(CC1CCOC1)C2.O=C(O)C(F)(F)F (stereo not drawn),-11.73%,-6.846%,-1.988%
Cc1nc2n(n1)CC(NCCCc1nc(-c3cccs3)no1)CC2 (stereo not drawn),-19.47%,23.94%,1.51%
c1cnnc(N2CCCC2CNCc2cc[nH]n2)c1 (stereo not drawn),6.021%,-6.675%,-0.7057%
Nc1nc2c(c(NC(=O)Nc3ccccc3)n1)CCCC2,-33.06%,-2.322% and -3.046%,-3.861%
[H][C@@]12CN(S(=O)(=O)c3ccccc3F)C[C@@]1([H])OCC(=O)N2,0.4127%,5.488%,-14.46%
[H][C@@]12CN(Cc3ccc(F)c(F)c3)C[C@]1([H])OCC(=O)N2Cc1nccn1C,-44.42%,-1.769%,-5.339%
Cc1cnc(C(=O)N2CCCCC2c2ccc(CN(C)C)cc2)cn1 (stereo not drawn),-25.85%,-8.194%,-56.3%
Cc1ccc2occ(CN3CCN(c4ncccn4)CC3)c(=O)c2c1,-45.15%,-5.175%,10.17%
[H][C@]12CC[C@](O)(CC1)C(COC)N2C(=O)c1ccc2c(c1)OCCCO2 (stereo partly drawn),-35.32%,-6.97%,15.78%
Cc1csc(C(C)(C)NCCCS(C)(=O)=O)n1,4.728%,13.91%,-1.685%
CN(Cc1noc(C2CC2)n1)C1CCN(Cc2nc(C3CC3)no2)C1 (stereo not drawn),-,-52.04%,7.847%
COc1ccc(C(=O)C2CCCN(c3cc(C#N)ccn3)C2)cc1OC (stereo not drawn),-12.51%,22.72%,9.024%
CC(C)c1nc(CN(C)Cc2ccc(O)c(C(=O)O)c2)cs1,10.45%,20.02%,-11.04%
Cc1c(C2N3C[C@]4(C)CN2C[C@](C)(C3)C4=O)[nH]c(=O)[nH]c1=O (stereo partly drawn),-51.2%,18.9%,26.05%
O=C(NCc1ccco1)N1CCOC(c2ccccc2Cl)C1 (stereo not drawn),-35.91%,21.39%,7.344%
Cc1occc1CNC(=O)C1CCN(C(=O)OC(C)(C)C)C1 (stereo not drawn),-21.43%,-4.901%,1.218%
Cc1ccsc1CN(CCCN(C)C)Cc1ccccn1,16.84%,17.88% and 13.41%,-7.9%
CC(Cc1ccco1)NC(=O)Nc1ccc(S(C)(=O)=O)nc1 (stereo not drawn),32.55%,-4.848%,-15.95%
C[C@H]1CN(CC2CCOCC2)C[C@@]12CCN(Cc1cccnc1)C2=O.O=C(O)C(F)(F)F.O=C(O)C(F)(F)F,-12.99%,21.37%,-31.63%
Cc1n[nH]c(C)c1NC(=O)c1cccc(OCC(F)(F)F)n1,17%,-8.766%,4.289%
Cc1ccccc1CN1CCC2(CCCN2C(=O)C(C)C)CC1,7.859%,14.76%,-2.922%

Some entries from above, unchanged:

SMILES,T. brucei,Leishmania in macrophages,Toxoplasma
Cc1noc(C)c1C(=O)NCc1ccnc(OCC(F)(F)F)c1,5.462%,22.52%,-17.22%
CC(C)n1nc(Cn2cccn2)c2c1CN(CC1CCOC1)C2.O=C(O)C(F)(F)F (stereo not drawn),-11.73%,-6.846%,-1.988%
Cc1n[nH]c(C)c1NC(=O)c1cccc(OCC(F)(F)F)n1,17%,-8.766%,4.289%
[H][C@]12CC[C@]([H])(CN(Cc3ccccn3)C1)N(CC(=O)NCc1cccs1)C2,-12.94%,45.47%,-